Measurements as given in US20240408218A1 (KØBENHAVNS UNIVERSITET, priority 2021, published 2024).

Experiment: general procedure: Fmoc solid-phase peptide synthesis; H-Rink amide ChemMatrix resin, 35-100 mesh, loading 0.40-0.60 mmol/g; HCTU/DIPEA
Details: conjugation step, analytical HPLC (214 nm); RP-UPLC and ESI-LCMS

Glucagon Pen40/MK-8722
purity (crude or final not stated): >95%
